Test results: article doi:10.1101/570747
These are yes or no findings as the source states them, for the method shown. Binding seen in cells or lysates may run through a third protein. Some entries that bind do so weakly or less than the wild type. Tags and fused reporters may be left off the sequences shown.

Biological target: T1, GFP-Cdc42ep5^WT (murine Cdc42ep5 with N-terminal GFP) (murine) (UniProt Q9Z0X0)
T1 sequence: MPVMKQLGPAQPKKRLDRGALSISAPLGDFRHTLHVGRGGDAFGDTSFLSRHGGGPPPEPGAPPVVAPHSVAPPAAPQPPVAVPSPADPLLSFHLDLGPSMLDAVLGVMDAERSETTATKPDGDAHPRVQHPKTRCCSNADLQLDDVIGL
Assay: co-IP

B1: Sept9 (endogenous, murine) (protein, UniProt Q80UG5 1-583)
chain: MKKSYSGVTRTSSGRLRRLADPTGPALKRSFEVEEIEPPNSTPPRRVQTPLLRATVASSSQKFQDLGVKNSEPAARLVDSLSQRSPKPSLRRVELAGAKAPEPMSRRTEISIDISSKQVESTASAAGPSRFGLKRAEVLGHKTPEPVPRRTEITIVKPQESVLRRVETPASKIPEGSAVPATDAAPKRVEIQVPKPAEAPNCPLPSQTLENSEAPMSQLQSRLEPRPSVAEVPYRNQEDSEVTPSCVGDMADNPRDAMLKQAPASRNEKAPMEFGYVGIDSILEQMRRKAMKQGFEFNIMVVGQSGLGKSTLINTLFKSKISRKSVQPTSEERIPKTIEIKSITHDIEEKGVRMKLTVIDTPGFGDHINNENCWQPIMKFINDQYEKYLQEEVNINRKKRIPDTRVHCCLYFIPATGHSLRPLDIEFMKRLSKVVNIVPVIAKADTLTLEERVYFKQRITADLLSNGIDVYPQKEFDEDAEDRLVNEKFREMIPFAVVGSDHEYQVNGKRILGRKTKWGTIEVENTTHCEFAYLRDLLIRTHMQNIKDITSNIHFEAYRVKRLNEGNSAMANGIEKEPEAQEM
B1 was tested, and the binding was “binds”.
